# Measured values from the supplement of paper PMC8728848.
# The list shows a part of the results.
# B1: Clec39 (Caenorhabditis elegans) (protein)
# chain: MTSFYDNSSSSSKPVPLKTSRAQKIQILIFDNWKLILYGAISTLILVLAIMFSTLFFALPAANCDENSEPTKYYTTNAEITTTITTTNQKTTSTASSHLTTISSSATQIYSESSSSSTSQSTFTQSPPEISTTTIAPSDFSCQHGFTLVNNKCWKLVTSNQARPDADKICNGYGGATLFSIKSEQDNRAMIHFVKGQDIDFLWSGLLCSAGEPISCIWDIENGSTANYSNFADGFPNIVYGNCVYFITSGDEAGQWGNEQCGQVMNFVCELPATFQGKDGCKNNYEKSCYLRFDLNLTVPQAQNFCLEKCANLVSIHSANEVRFIMTIYDFIGEILIGALAPAQDFIYWLDGTPANYNNLKFFYNSTCVHMTVAPGMQNVGKWFTRFCTETGKFLCKRSIKNSCT
# Experiments:
# Assay in all cases: glycan array binding signal (z-score within array); higher = stronger binding
# Conditions in all cases: glycan notation: IUPAC condensed, linker removed
# [1] = target: Neu5Ac(a2-6)Gal(b1-3)GlcNAc(b1-3)[Gal(b1-4)GlcNAc(b1-6)]Gal(b1-4)Glc
# In short: (§1)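 From the Consortium for Functional Glycomics database, 3228 arrays were curated, keeping only those whose protein sequence was available. Binding is given as a within-array Z-score averaged across arrays sharing a protein sequence and across linkers. Negative Z-scores can be read as non-binding.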
# [2] = target: Neu5Ac(a2-6)Gal(b1-4)Glc
# In short: as §1
# [3] = target: Neu5Ac(a2-6)Gal(b1-4)GlcNAc
# In short: as §1
# [4] = target: Neu5Ac(a2-6)Gal(b1-4)GlcNAc(b1-2)Man
# In short: as §1
# [5] = target: Neu5Ac(a2-6)Gal(b1-4)GlcNAc(b1-2)Man(a1-3)Man(b1-4)GlcNAc(b1-4)GlcNAc
# In short: as §1
# [6] = target: Neu5Ac(a2-6)Gal(b1-4)GlcNAc(b1-2)Man(a1-3)[Gal(b1-4)GlcNAc(b1-2)Man(a1-6)]Man(b1-4)GlcNAc(b1-4)GlcNAc
# In short: as §1
# [7] = target: Neu5Ac(a2-6)Gal(b1-4)GlcNAc(b1-2)Man(a1-3)[GlcNAc(b1-2)Man(a1-6)]Man(b1-4)GlcNAc(b1-4)GlcNAc
# In short: as §1
# [8] = target: Neu5Ac(a2-6)Gal(b1-4)GlcNAc(b1-2)Man(a1-3)[GlcNAc(b1-4)][Neu5Ac(a2-6)Gal(b1-4)GlcNAc(b1-2)Man(a1-6)]Man(b1-4)GlcNAc(b1-4)GlcNAc
# In short: as §1
# [9] = target: Neu5Ac(a2-6)Gal(b1-4)GlcNAc(b1-2)Man(a1-3)[Man(a1-6)]Man(b1-4)GlcNAc(b1-4)GlcNAc
# In short: as §1
# [10] = target: Neu5Ac(a2-6)Gal(b1-4)GlcNAc(b1-2)Man(a1-3)[Neu5Ac(a2-3)Gal(b1-4)GlcNAc(b1-2)Man(a1-6)]Man(b1-4)GlcNAc(b1-4)GlcNAc
# In short: as §1
# [11] = target: Neu5Ac(a2-6)Gal(b1-4)GlcNAc(b1-2)Man(a1-3)[Neu5Ac(a2-6)Gal(b1-4)GlcNAc(b1-2)Man(a1-6)]Man(b1-4)GlcNAc(b1-4)GlcNAc
# In short: as §1
# [12] = target: Neu5Ac(a2-6)Gal(b1-4)GlcNAc(b1-2)Man(a1-3)[Neu5Ac(a2-6)Gal(b1-4)GlcNAc(b1-2)Man(a1-6)]Man(b1-4)GlcNAc(b1-4)[Fuc(a1-6)]GlcNAc
# In short: as §1
# [13] = target: Neu5Ac(a2-6)Gal(b1-4)GlcNAc(b1-2)Man(a1-6)Man(b1-4)GlcNAc(b1-4)GlcNAc
# In short: as §1
# [14] = target: Neu5Ac(a2-6)Gal(b1-4)GlcNAc(b1-2)Man(a1-6)[Gal(b1-4)GlcNAc(b1-2)Man(a1-3)]Man(b1-4)GlcNAc(b1-4)GlcNAc
# In short: as §1
# [15] = target: Neu5Ac(a2-6)Gal(b1-4)GlcNAc(b1-2)Man(a1-6)[GlcNAc(b1-2)Man(a1-3)]Man(b1-4)GlcNAc(b1-4)GlcNAc
# In short: as §1
# [16] = target: Neu5Ac(a2-6)Gal(b1-4)GlcNAc(b1-2)Man(a1-6)[Man(a1-3)]Man(b1-4)GlcNAc(b1-4)GlcNAc
# In short: as §1
# [17] = target: Neu5Ac(a2-6)Gal(b1-4)GlcNAc(b1-2)[Neu5Ac(a2-6)Gal(b1-4)GlcNAc(b1-4)]Man(a1-3)[GlcNAc(b1-4)][Neu5Ac(a2-6)Gal(b1-4)GlcNAc(b1-2)[Neu5Ac(a2-6)Gal(b1-4)GlcNAc(b1-6)]Man(a1-6)]Man(b1-4)GlcNAc(b1-4)GlcNAc
# In short: as §1
# [18] = target: Neu5Ac(a2-6)Gal(b1-4)GlcNAc(b1-2)[Neu5Ac(a2-6)Gal(b1-4)GlcNAc(b1-4)]Man(a1-3)[GlcNAc(b1-4)][Neu5Ac(a2-6)Gal(b1-4)GlcNAc(b1-4)Man(a1-6)]Man(b1-4)GlcNAc(b1-4)GlcNAc
# In short: as §1
# [19] = target: Neu5Ac(a2-6)Gal(b1-4)GlcNAc(b1-2)[Neu5Ac(a2-6)Gal(b1-4)GlcNAc(b1-6)]Man(a1-6)[Neu5Ac(a2-6)Gal(b1-4)GlcNAc(b1-2)Man(a1-3)][GlcNAc(b1-4)]Man(b1-4)GlcNAc(b1-4)GlcNAc
# In short: as §1
# [20] = target: Neu5Ac(a2-6)Gal(b1-4)GlcNAc(b1-3)Gal(b1-3)GlcNAc
# In short: as §1
# [21] = target: Neu5Ac(a2-6)Gal(b1-4)GlcNAc(b1-3)Gal(b1-4)GlcNAc
# In short: as §1
# [22] = target: Neu5Ac(a2-6)Gal(b1-4)GlcNAc(b1-3)Gal(b1-4)GlcNAc(b1-2)Man(a1-3)[Neu5Ac(a2-6)Gal(b1-4)GlcNAc(b1-3)Gal(b1-4)GlcNAc(b1-2)Man(a1-6)]GalNAc
# In short: as §1
# [23] = target: Neu5Ac(a2-6)Gal(b1-4)GlcNAc(b1-3)Gal(b1-4)GlcNAc(b1-3)Gal(b1-4)GlcNAc
# In short: as §1
# [24] = target: Neu5Ac(a2-6)Gal(b1-4)GlcNAc(b1-3)Gal(b1-4)GlcNAc(b1-3)Gal(b1-4)GlcNAc(b1-2)Man(a1-3)[Neu5Ac(a2-6)Gal(b1-4)GlcNAc(b1-3)Gal(b1-4)GlcNAc(b1-3)Gal(b1-4)GlcNAc(b1-2)Man(a1-6)]GalNAc
# In short: as §1
# [25] = target: Neu5Ac(a2-6)Gal(b1-4)GlcNAc(b1-3)Gal(b1-4)GlcNAc(b1-3)GalNAc
# In short: as §1
# [26] = target: Neu5Ac(a2-6)Gal(b1-4)GlcNAc(b1-3)Gal(b1-4)GlcNAc(b1-3)[Neu5Ac(a2-6)Gal(b1-4)GlcNAc(b1-3)Gal(b1-4)GlcNAc(b1-6)]GalNAc
# In short: as §1
# [27] = target: Neu5Ac(a2-6)Gal(b1-4)GlcNAc(b1-3)Gal(b1-4)GlcNAc(b1-6)[Gal(b1-3)]GalNAc
# In short: as §1
# [28] = target: Neu5Ac(a2-6)Gal(b1-4)GlcNAc(b1-3)Gal(b1-4)[Fuc(a1-3)]GlcNAc(b1-3)Gal(b1-4)[Fuc(a1-3)]GlcNAc
# In short: as §1
# [29] = target: Neu5Ac(a2-6)Gal(b1-4)GlcNAc(b1-3)GalNAc
# In short: as §1
# [30] = target: Neu5Ac(a2-6)Gal(b1-4)GlcNAc(b1-3)[Neu5Ac(a2-6)Gal(b1-4)GlcNAc(b1-6)]GalNAc
# In short: as §1
# [31] = target: Neu5Ac(a2-6)Gal(b1-4)GlcNAc(b1-6)GalNAc
# In short: as §1
# [32] = target: Neu5Ac(a2-6)Gal(b1-4)GlcNAc(b1-6)[Gal(b1-3)GlcNAc(b1-3)]Gal(b1-4)Glc
# In short: as §1
# [33] = target: Neu5Ac(a2-6)Gal(b1-4)GlcNAc(b1-6)[Gal(b1-3)]GalNAc
# In short: as §1
# [34] = target: Neu5Ac(a2-6)Gal(b1-4)GlcNAc6S
# In short: as §1
# [35] = target: Neu5Ac(a2-6)GalNAc
# In short: as §1
# [36] = target: Neu5Ac(a2-6)GalNAc(b1-4)GlcNAc
# In short: as §1
# [37] = target: Neu5Ac(a2-6)GalNAc(b1-4)GlcNAc6S
# In short: as §1
# [38] = target: Neu5Ac(a2-6)GlcNAc(b1-4)GlcNAc
# In short: as §1
binder,measurement,setting,value
B1,glycan array binding signal (z-score),[1],-0.501
same,glycan array binding signal (z-score),[2],-1.37
same,glycan array binding signal (z-score),[3],-1.22
same,glycan array binding signal (z-score),[4],-0.28
same,glycan array binding signal (z-score),[5],0.606
same,glycan array binding signal (z-score),[6],0.815
same,glycan array binding signal (z-score),[7],0.613
same,glycan array binding signal (z-score),[8],-0.538
same,glycan array binding signal (z-score),[9],1.07
same,glycan array binding signal (z-score),[10],-0.493
same,glycan array binding signal (z-score),[11],-0.628
same,glycan array binding signal (z-score),[12],0.847
same,glycan array binding signal (z-score),[13],0.204
same,glycan array binding signal (z-score),[14],-1.02
same,glycan array binding signal (z-score),[15],0.362
same,glycan array binding signal (z-score),[16],0.487
same,glycan array binding signal (z-score),[17],-0.876
same,glycan array binding signal (z-score),[18],0.149
same,glycan array binding signal (z-score),[19],-0.547
same,glycan array binding signal (z-score),[20],-0.794
same,glycan array binding signal (z-score),[21],-1.31
same,glycan array binding signal (z-score),[22],0.435
same,glycan array binding signal (z-score),[23],-0.913
same,glycan array binding signal (z-score),[24],-0.432
same,glycan array binding signal (z-score),[25],-2.01
same,glycan array binding signal (z-score),[26],-0.058
same,glycan array binding signal (z-score),[27],1.14
same,glycan array binding signal (z-score),[28],-0.95
same,glycan array binding signal (z-score),[29],-0.868
same,glycan array binding signal (z-score),[30],-0.29
same,glycan array binding signal (z-score),[31],-0.055
same,glycan array binding signal (z-score),[32],0.004
same,glycan array binding signal (z-score),[33],0.359
same,glycan array binding signal (z-score),[34],-0.23
same,glycan array binding signal (z-score),[35],-0.654
same,glycan array binding signal (z-score),[36],-0.184
same,glycan array binding signal (z-score),[37],-0.11
same,glycan array binding signal (z-score),[38],0.106

# At a glance, part of the list above.
binder,measurement,setting,value
B1,glycan array binding signal (z-score),[14],-1.02
same,glycan array binding signal (z-score),[15],0.362
same,glycan array binding signal (z-score),[16],0.487
